Measured values taken from publication doi:10.1101/2022.07.28.501905.
No constants are given. Whether binding was seen depends on the method and setting. For some of these results: Binding seen in cells or lysates may run through a third protein. For some of these results: Binding can be weak; no strength is given. For some of these results: Where a sequence is shown, tags or fusion partners need not be part of it.

Assays:
[1] = target: T1, NLuc-RPW8.2 (Arabidopsis) (UniProt Q9C5Z6); assay: split reporter
T1 sequence: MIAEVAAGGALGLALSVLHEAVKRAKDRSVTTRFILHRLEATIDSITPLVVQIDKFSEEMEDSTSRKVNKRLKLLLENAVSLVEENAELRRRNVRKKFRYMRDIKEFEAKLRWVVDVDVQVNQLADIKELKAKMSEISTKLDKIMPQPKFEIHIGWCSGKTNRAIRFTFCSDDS

[2] = target: T2, RPW8.2-NT (first 100 aa) fused to the GAL4 DNA-binding domain (Arabidopsis) (UniProt Q9C5Z6); assay: two-hybrid
T2 sequence: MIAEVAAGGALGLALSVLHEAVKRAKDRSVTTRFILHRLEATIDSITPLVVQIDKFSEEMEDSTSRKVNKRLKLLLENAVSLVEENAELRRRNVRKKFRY

[3] = target: T3, RPW8.2-CT (101-174 aa) fused to the GAL4 DNA-binding domain (Arabidopsis) (UniProt Q9C5Z6); assay: two-hybrid
T3 sequence: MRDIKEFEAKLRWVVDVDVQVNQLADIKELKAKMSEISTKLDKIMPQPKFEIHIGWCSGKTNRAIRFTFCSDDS

RPW8.2-YC (Arabidopsis) = target: T4, RPW8.2-YC (Arabidopsis) (UniProt Q9C5Z6); assay: split reporter
T4 sequence: T1 sequence

“CLuc-GcR8IP1 (Golovinomyces cichoracearum UCSC1)” was tested. Which binding [1] did it give?
Its binding is “binds”.

How did the binding [2] turn out when “GcR8IP1-M2 (RING domain-deleted mutant) fused to the GAL4 activation domain (Golovinomyces cichoracearum UCSC1) (domain or fragment)” was run?
The binding was “no binding”.

And the binding [3]?
The binding was “no binding”.

For “YN-RING (RING domain of GcR8IP1) (Golovinomyces cichoracearum UCSC1) (domain or fragment)”, which binding (RPW8.2-YC (Arabidopsis)) is on record?
The binding was “binds”.
